According to patent US11746102B2, “Polymorphs of selinexor” (Karyopharm Therapeutics Inc., priority 2014, dated 2023):
Some entries share one result that the patent states for a list of compounds. At least one compound was matched to its structure with a doubt left.

Test: Particle size analysis (Malvern MS2000, volume-based)
Assay type: physicochemical
Excerpt: Particle size data was acquired using a Malvern Instruments MS2000 equipped with a Hydro2000 μP dispersion unit. Data was collected and analyzed using Mastersizer 2000 v 5.60 software, using volume-based measurements. NIST-traceable glass beads were used as the reference standard.
Details of the method conditions used to analyze particle size are listed below: • Sample refractive index: 1.596 • Sample absorption: 0.001 • Dispersant: 0.100 (w/v) Lecithin in Isopar G • Dispersant refractive index: 1.42 • Pump speed: 2100 rpm • Recirculation time: 2 minutes • Sample measurement time: 30 sec. • Background measurement time: 30 sec. • Model: general purpose • Sensitivity: normal • Particle shape: irregular.
One particle size measurement of each lot of selinexor described in Examples 1-6 was collected using the particle size method conditions described above. Table 4 provides sample information and particle size analysis data for the indicated lot of selinexor under the particle size method analysis conditions described above. FIGS. 5A-5P are particle size distribution graphs and show the particle size distribution of the sample corresponding to the indicated lot of selinexor under the particle size method analysis conditions described above.

SMILES: O=C(/C=C\n1cnc(-c2cc(C(F)(F)F)cc(C(F)(F)F)c2)n1)NNc1cnccn1 [Lot No. PC-14-005]
- Primary mode of the particle size distribution: 12-15 μm
- Secondary mode (shoulder on the side of the primary mode): 80-90 μm
